Source: article PMC10709454
No constants are given. Whether binding was seen depends on the method and setting. Binding seen in cells or lysates may run through a third protein. These calls come from enrichment with a bait or labelling near it, and not all partners need be listed.

By UniProt entry, the sequences of proteins in these tests, tags left out.
UniProt P45974: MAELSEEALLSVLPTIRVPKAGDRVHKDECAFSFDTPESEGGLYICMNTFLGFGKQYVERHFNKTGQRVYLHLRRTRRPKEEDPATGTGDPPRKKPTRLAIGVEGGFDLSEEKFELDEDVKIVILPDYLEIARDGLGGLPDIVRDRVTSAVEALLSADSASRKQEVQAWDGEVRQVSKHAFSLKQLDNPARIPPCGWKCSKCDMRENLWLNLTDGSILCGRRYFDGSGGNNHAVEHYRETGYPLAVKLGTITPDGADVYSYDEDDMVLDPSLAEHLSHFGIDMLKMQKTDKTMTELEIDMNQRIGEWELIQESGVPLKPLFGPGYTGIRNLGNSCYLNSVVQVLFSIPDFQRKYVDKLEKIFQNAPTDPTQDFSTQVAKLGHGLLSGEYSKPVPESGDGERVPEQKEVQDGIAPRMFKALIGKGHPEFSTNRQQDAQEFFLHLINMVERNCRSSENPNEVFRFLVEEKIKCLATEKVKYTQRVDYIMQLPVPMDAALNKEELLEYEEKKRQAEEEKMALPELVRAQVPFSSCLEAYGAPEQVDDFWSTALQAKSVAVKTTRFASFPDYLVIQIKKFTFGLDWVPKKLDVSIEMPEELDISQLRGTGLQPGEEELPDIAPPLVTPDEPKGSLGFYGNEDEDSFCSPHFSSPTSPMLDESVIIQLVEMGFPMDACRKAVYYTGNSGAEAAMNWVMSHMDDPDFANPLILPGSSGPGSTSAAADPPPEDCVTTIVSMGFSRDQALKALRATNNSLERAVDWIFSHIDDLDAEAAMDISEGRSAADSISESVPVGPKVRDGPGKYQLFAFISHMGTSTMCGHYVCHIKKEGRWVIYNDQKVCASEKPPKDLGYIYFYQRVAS

Target: T1, common cytokine receptor γ chain (human (endogenous in Jurkat)) (UniProt P31785)
T1 sequence: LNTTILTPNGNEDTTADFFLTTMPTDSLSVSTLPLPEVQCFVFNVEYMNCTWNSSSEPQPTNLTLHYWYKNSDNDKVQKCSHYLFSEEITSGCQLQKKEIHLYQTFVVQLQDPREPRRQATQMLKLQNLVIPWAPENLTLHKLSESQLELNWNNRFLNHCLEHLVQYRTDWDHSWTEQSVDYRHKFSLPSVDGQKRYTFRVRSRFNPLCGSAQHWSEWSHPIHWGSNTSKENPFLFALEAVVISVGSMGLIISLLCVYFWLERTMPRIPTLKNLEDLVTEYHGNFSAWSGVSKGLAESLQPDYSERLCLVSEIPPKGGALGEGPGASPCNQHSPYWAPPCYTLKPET
Assay: affinity purification with mass spectrometry; Jurkat cells (1 × 10^8); endogenous γc immunoprecipitated with anti-γc, desalted, analyzed by mass spectrometry

Row | binding | Substance
1 | binds | SHP2 (from UniProt Q06124 1-593) (enzyme)
2 | binds | USP5 (from UniProt P45974 1-858) (enzyme)
